Source: the supplement of paper PMC8732350
Several values for one entry are separate records, joined by “and”; a condition that tells them apart may be missing. Equal entries are not always repeated. Structures can show the parent of a compound that is named as a salt. ± gives the standard deviation of the averaged measurements. Some of the results follow. Most values lie within the scatter of the assay; repeated measurements hardly agree.

The compounds below were run on A549 (assay: surface PD-L1 immunofluorescence intensity relative to IFN-gamma-only control (ratio); higher = more PD-L1 expression). Settings: 10 µM; exposure time 24 h; IFN-gamma 100 ng/mL.

SMILES	surface PD-L1 immunofluorescence intensity
CC(C)NCC(O)c1ccc(O)c(O)c1 (stereo unspecified) [Isoproterenol hydrochloride]	1.01
CS(=O)(=O)N1CCN(Cc2cc3nc(-c4cccc5[nH]ncc45)nc(N4CCOCC4)c3s2)CC1 [Pictilisib (GDC-0941)]	0.939
CC(C)(C)NC(=O)[C@@H]1C[C@@H]2CCCC[C@@H]2CN1C[C@@H](O)[C@H](Cc1ccccc1)NC(=O)[C@H](CC(N)=O)NC(=O)c1ccc2ccccc2n1 [Saquinavir mesylate]	1.01
COc1ccc2[nH]c([S@@+]([O-])Cc3ncc(C)c(OC)c3C)nc2c1 [Esomeprazole magnesium (Nexium)]	1.07
c1ccc(C(O[C@@H]2CCCN(CCc3ccc4c(c3)OCO4)C2)c2ccccc2)cc1 [Zamifenacin fumarate]	1.11
CC(=O)OCC(=O)[C@@]1(O)[C@H](C)C[C@H]2[C@@H]3CCC4=CC(=O)C=C[C@]4(C)[C@@]3(F)[C@@H](O)C[C@@]21C [Dexamethasone acetate]	0.766 ± 0.033
COc1ncnc(NS(=O)(=O)c2ccc(N)cc2)c1OC [Sulfadoxine]	0.968
CC1(C)CCC[C@]2(C)[C@H]3CC(=O)O[C@]3(C)CC[C@@H]12 [Sclareolide (Norambreinolide)]	0.918
COc1c(N2C[C@@H]3CCCN[C@@H]3C2)c(F)cc2c(=O)c(C(=O)O)cn(C3CC3)c12 [Moxifloxacin]	1.09
COc1ccc(C(=O)c2ccccc2)c(O)c1 [Oxybenzone]	1.08
Cc1ccccc1C(=O)c1ccc(Nc2ccc(Br)cc2N)cc1Cl	0.984
COc1ccc(C(=O)CC(=O)c2ccc(C(C)(C)C)cc2)cc1 [Avobenzone (Parsol 1789)]	1.11
COc1cc(C(C)=O)ccc1OCCCN1CCC(c2noc3cc(F)ccc23)CC1 [Iloperidone (Fanapt)]	1.05
CCOC(=O)[C@H](CCc1ccccc1)N[C@H]1CCCN2CCC[C@@H](C(=O)O)N2C1=O [Cilazapril monohydrate (Inhibace)]	1.13
CCCC1O[C@@H]2C[C@H]3[C@@H]4CCC5=CC(=O)C=C[C@]5(C)[C@H]4[C@@H](O)C[C@]3(C)[C@]2(C(=O)CO)O1 (stereo partly specified) [Budesonide]	0.888 ± 0.017
COC(=O)c1c(C)[nH]c(C)c1C(=O)c1ccccc1Cc1ccccc1	1 and 0.981
CC(C)n1nnc2cc(C(=O)O)ccc21	1.08
CC(C(=O)O)c1cccc(C(=O)c2ccccc2)c1 (stereo unspecified) [Ketoprofen]	0.99

Structures from the list above containing four or more nitrogen atoms, in the order listed:
SMILES	surface PD-L1 immunofluorescence intensity
CS(=O)(=O)N1CCN(Cc2cc3nc(-c4cccc5[nH]ncc45)nc(N4CCOCC4)c3s2)CC1 [Pictilisib (GDC-0941)]	0.939
CC(C)(C)NC(=O)[C@@H]1C[C@@H]2CCCC[C@@H]2CN1C[C@@H](O)[C@H](Cc1ccccc1)NC(=O)[C@H](CC(N)=O)NC(=O)c1ccc2ccccc2n1 [Saquinavir mesylate]	1.01
COc1ncnc(NS(=O)(=O)c2ccc(N)cc2)c1OC [Sulfadoxine]	0.968

More records follow:

SMILES	surface PD-L1 immunofluorescence intensity
CC(C1=C(CCN(C)C)Cc2ccccc21)c1ccccn1 (stereo in doubt) [(S)-(+)-Dimethindene maleate]	0.982
CC1=C(C(=O)Nc2cc3cn[nH]c3cc2F)C(c2ccc(C(F)(F)F)cc2)CC(=O)N1 (stereo unspecified)	0.986 ± 0.12
NCC(O)(CS(=O)(=O)O)c1ccc(Cl)cc1 (stereo unspecified) [2-Hydroxysaclofen]	1.04
CC[C@H](NC(=O)c1c(C)c(-c2ccccc2)nc2ccccc12)c1ccccc1	1.01
CCOC(=O)c1ncn2c1CN(C)C(=O)c1cc(F)ccc1-2 [Flumazenil]	1.03
Cc1cc(C)c2c(c1)[C@@H](N(Cc1cc(C(F)(F)F)cc(C(F)(F)F)c1)c1nnn(C)n1)CCCN2C[C@H]1CC[C@H](C(=O)O)CC1	0.977
CC1=C(/C=C/C(C)=C/C=C/C(C)=C/C=C/C=C(C)/C=C/C=C(C)/C=C/C2=C(C)C(=O)CCC2(C)C)C(C)(C)CCC1=O [Canthaxanthin]	0.918
C[C@H](N)[C@H](O)c1cccc(O)c1 [Metaraminol bitartrate]	0.909
NC(=O)N1C(=O)/C(=C(\O)c2cccs2)c2cc(Cl)ccc21 [Tenidap]	1.14
CCN(CC)CCOC(=O)C(Cc1cccc2ccccc12)CC1CCCO1 (stereo unspecified) [Nafronyl oxalate]	0.928
CC1(C)S[C@@H]2[C@H](NC(=O)C(C(=O)O)c3ccccc3)C(=O)N2[C@H]1C(=O)O (stereo partly specified) [Carbenicillin disodium]	0.897
CC(C)=CCC/C(C)=C/CC/C(C)=C/CO [Farnesol]	1.01
Cc1nc2sccn2c(=O)c1CCN1CCC(=C(c2ccccc2)c2ccc(F)cc2)CC1	0.995
Cc1ccccc1OCC(O)CO (stereo unspecified) [Mephenesin]	1
S=c1ccss1 [1,2-Dithiole-3-thione]	0.988
CS(=O)(=O)c1ccc(-c2cc(Br)sc2-c2ccc(F)cc2)cc1	1.09
O=C1CN(/N=C/c2ccc([N+](=O)[O-])o2)C(=O)N1 [Nitrofurantoin]	0.903
CC1(C)S[C@@H]2[C@H](NC(=O)[C@H](C(=O)O)c3ccsc3)C(=O)N2[C@H]1C(=O)O [Ticarcillin sodium]	1.03
